For data set [1], the target named is CsMYC2-MBP (Citrus sinensis (Newhall orange)) (UniProt V4SX11). Put plainly: EMSA. The settings on record: CsMPK6-GST added (2, 6, 10 ug); EMSA: as in Yue et al. 2019, buffer not given; recombinant protein; protein details: MBP (pMAL-C2X); label: 3' biotin. On the technique in general: Mobility shift assays separate free from complexed probe on a gel.
The subject of data set [2] is CsMYC2A-MBP (Citrus sinensis (Newhall orange)). Description: EMSA. As to conditions: no difference from CsMYC2; EMSA: as in Yue et al. 2019, buffer not given; recombinant protein; protein details: MBP (pMAL-C2X); label: 3' biotin.
Data set [3] has as its system CsMYC2D-MBP (Citrus sinensis (Newhall orange)). Description: EMSA. As to conditions: no difference from CsMYC2; EMSA: as in Yue et al. 2019, buffer not given; recombinant protein; protein details: MBP (pMAL-C2X); label: 3' biotin.
Data set [4] addresses CsMYC2-MBP (Citrus sinensis (Newhall orange)) (UniProt V4SX11). Put plainly: DNA pull-down. As to conditions: CsMPK6-GST added; DNA pull-down: probe bound to beads in 10 mM Tris-HCl pH 7.5, 1 mM EDTA, 1 M NaCl, 0.1% Tween-20 at RT, then protein 1 h on ice; recombinant protein; protein details: MBP (pMAL-C2X); label: 3' biotin.
Data set [5] concerns CsMYC2A-MBP (Citrus sinensis (Newhall orange)). Description: DNA pull-down. As to conditions: no difference from CsMYC2; DNA pull-down: probe bound to beads in 10 mM Tris-HCl pH 7.5, 1 mM EDTA, 1 M NaCl, 0.1% Tween-20 at RT, then protein 1 h on ice; recombinant protein; protein details: MBP (pMAL-C2X); label: 3' biotin.
Data set [6] deals with CsMYC2D-MBP (Citrus sinensis (Newhall orange)). Description: DNA pull-down. As to conditions: no difference from CsMYC2; DNA pull-down: probe bound to beads in 10 mM Tris-HCl pH 7.5, 1 mM EDTA, 1 M NaCl, 0.1% Tween-20 at RT, then protein 1 h on ice; recombinant protein; protein details: MBP (pMAL-C2X); label: 3' biotin.

The exact form of at least one protein or probe is not confirmed. For part of these data: The comparison behind a weaker result is the experiment's own reference, which may not be listed here. For part of these data: At least one verdict was read from the data and is not stated in words by the source.

For “GTACCATACAACTGTGGCACCATAGCTGGATC (double strand) [CsCCD4b-probe]”, the binding result in data set [1] is given as “binds more weakly”; in data set [2] it was “binds”; in data set [3], “binds”; in data set [4], “binds more weakly”; in data set [5] it was “binds”; in data set [6], “binds”.

Values taken from article PMC10052374.
